This is one part of the list.
What was measured:
Experiment in all cases: glycan array binding signal (z-score within array); higher = stronger binding
Settings in all cases: glycan notation: IUPAC condensed, linker removed
[1] = biological target: Fuc(a1-2)[Gal(a1-3)]Gal(b1-4)Glc
How it was run: (§1)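 The Consortium for Functional Glycomics database supplied 3228 glycan arrays, of which those lacking an available protein sequence were dropped. The binding signal, a within-array Z-score, was averaged across arrays of the same protein sequence and across linkers. Negative scores can be read as non-binding.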

[2] = biological target: Fuc(a1-2)[Gal(a1-3)]Gal(b1-4)GlcNAc
How it was run: as §1

[3] = biological target: Fuc(a1-2)[Gal(a1-3)]Gal(b1-4)GlcNAc(b1-2)Man(a1-3)[Fuc(a1-2)[Gal(a1-3)]Gal(b1-4)GlcNAc(b1-2)Man(a1-6)]Man(b1-4)GlcNAc(b1-4)GlcNAc
How it was run: as §1

[4] = biological target: Fuc(a1-2)[Gal(a1-3)]Gal(b1-4)GlcNAc(b1-2)Man(a1-3)[Fuc(a1-2)[Gal(a1-3)]Gal(b1-4)GlcNAc(b1-2)Man(a1-6)]Man(b1-4)GlcNAc(b1-4)[Fuc(a1-6)]GlcNAc
How it was run: as §1

[5] = biological target: Fuc(a1-2)[Gal(a1-3)]Gal(b1-4)GlcNAc(b1-3)GalNAc
How it was run: as §1

[6] = biological target: Fuc(a1-2)[Gal(a1-3)]Gal(b1-4)[Fuc(a1-3)]Glc
How it was run: as §1

[7] = biological target: Fuc(a1-2)[Gal(a1-3)]Gal(b1-4)[Fuc(a1-3)]GlcNAc
How it was run: as §1

[8] = biological target: Fuc(a1-2)[Gal(a1-3)]Gal(b1-4)[Fuc(a1-3)]GlcNAc(b1-3)GalNAc
How it was run: as §1

[9] = biological target: Fuc(a1-2)[Gal(a1-4)]Gal(b1-4)GlcNAc
How it was run: as §1

[10] = biological target: Fuc(a1-2)[GalNAc(a1-3)]Gal
How it was run: as §1

[11] = biological target: Fuc(a1-2)[GalNAc(a1-3)]Gal(b1-3)GalNAc(a1-3)[Fuc(a1-2)]Gal(b1-4)GlcNAc
How it was run: as §1

[12] = biological target: Fuc(a1-2)[GalNAc(a1-3)]Gal(b1-3)GlcNAc
How it was run: as §1

[13] = biological target: Fuc(a1-2)[GalNAc(a1-3)]Gal(b1-3)GlcNAc(b1-2)Man(a1-3)[Fuc(a1-2)[GalNAc(a1-3)]Gal(b1-3)GlcNAc(b1-2)Man(a1-6)]Man(b1-4)GlcNAc(b1-4)GlcNAc
How it was run: as §1

[14] = biological target: Fuc(a1-2)[GalNAc(a1-3)]Gal(b1-3)GlcNAc(b1-2)Man(a1-3)[Fuc(a1-2)[GalNAc(a1-3)]Gal(b1-3)GlcNAc(b1-2)Man(a1-6)]Man(b1-4)GlcNAc(b1-4)[Fuc(a1-6)]GlcNAc
How it was run: as §1

[15] = biological target: Fuc(a1-2)[GalNAc(a1-3)]Gal(b1-3)GlcNAc(b1-3)GalNAc
How it was run: as §1

[16] = biological target: Fuc(a1-2)[GalNAc(a1-3)]Gal(b1-4)Glc
How it was run: as §1

[17] = biological target: Fuc(a1-2)[GalNAc(a1-3)]Gal(b1-4)GlcNAc
How it was run: as §1

[18] = biological target: Fuc(a1-2)[GalNAc(a1-3)]Gal(b1-4)GlcNAc(b1-2)Man(a1-3)[Fuc(a1-2)[GalNAc(a1-3)]Gal(b1-4)GlcNAc(b1-2)Man(a1-6)]Man(b1-4)GlcNAc(b1-4)GlcNAc
How it was run: as §1

[19] = biological target: Fuc(a1-2)[GalNAc(a1-3)]Gal(b1-4)GlcNAc(b1-2)Man(a1-3)[Fuc(a1-2)[GalNAc(a1-3)]Gal(b1-4)GlcNAc(b1-2)Man(a1-6)]Man(b1-4)GlcNAc(b1-4)[Fuc(a1-6)]GlcNAc
How it was run: as §1

[20] = biological target: Fuc(a1-2)[GalNAc(a1-3)]Gal(b1-4)GlcNAc(b1-3)Gal(b1-4)GlcNAc
How it was run: as §1

[21] = biological target: Fuc(a1-2)[GalNAc(a1-3)]Gal(b1-4)GlcNAc(b1-3)Gal(b1-4)GlcNAc(b1-3)Gal(b1-4)GlcNAc
How it was run: as §1

[22] = biological target: Fuc(a1-2)[GalNAc(a1-3)]Gal(b1-4)GlcNAc(b1-3)GalNAc
How it was run: as §1

[23] = biological target: Fuc(a1-2)[GalNAc(a1-3)]Gal(b1-4)[Fuc(a1-3)]GlcNAc
How it was run: as §1

[24] = biological target: Fuc(a1-2)[GalNAc(a1-3)]Gal(b1-4)[Fuc(a1-3)]GlcNAc(b1-3)GalNAc
How it was run: as §1

[25] = biological target: Fuc(a1-2)[GalNAc(a1-4)]Gal(b1-4)GlcNAc
How it was run: as §1

[26] = biological target: Fuc(a1-2)[GalNAc(b1-3)]Gal
How it was run: as §1

[27] = biological target: Fuc(a1-3)GlcNAc
How it was run: as §1

[28] = biological target: Fuc(a1-3)[Gal(b1-4)]Glc6S
How it was run: as §1

[29] = biological target: Fuc(a1-3)[Gal(b1-4)]GlcNAc
How it was run: as §1

[30] = biological target: Fuc(a1-3)[Gal(b1-4)]GlcNAc(b1-2)Man(a1-3)[Fuc(a1-3)[Gal(b1-4)]GlcNAc(b1-2)Man(a1-6)]Man(b1-4)GlcNAc(b1-4)GlcNAc
How it was run: as §1

[31] = biological target: Fuc(a1-3)[Gal(b1-4)]GlcNAc(b1-2)Man(a1-3)[Fuc(a1-3)[Gal(b1-4)]GlcNAc(b1-2)Man(a1-6)]Man(b1-4)GlcNAc(b1-4)[Fuc(a1-6)]GlcNAc
How it was run: as §1

[32] = biological target: Fuc(a1-3)[Gal(b1-4)]GlcNAc(b1-3)Gal(b1-3)[Fuc(a1-4)]GlcNAc
How it was run: as §1

[33] = biological target: Fuc(a1-3)[Gal(b1-4)]GlcNAc(b1-3)GalNAc
How it was run: as §1

[34] = biological target: Fuc(a1-3)[Gal(b1-4)]GlcNAc(b1-4)Gal(b1-4)[Fuc(a1-3)]GlcNAc
How it was run: as §1

[35] = biological target: Fuc(a1-3)[Gal(b1-4)]GlcNAc(b1-4)Gal(b1-4)[Fuc(a1-3)]GlcNAc(b1-4)Gal(b1-4)[Fuc(a1-3)]GlcNAc
How it was run: as §1

[36] = biological target: Fuc(a1-3)[Gal(b1-4)]GlcNAc(b1-6)GalNAc
How it was run: as §1

[37] = biological target: Fuc(a1-3)[Gal(b1-4)]GlcNAc(b1-6)[Gal(b1-3)GlcNAc(b1-3)]Gal(b1-4)Glc
How it was run: as §1

[38] = biological target: Fuc(a1-3)[Gal(b1-4)]GlcNAc(b1-6)[Neu5Ac(a2-3)Gal(b1-3)]GalNAc
How it was run: as §1

[39] = biological target: Fuc(a1-3)[Gal(b1-4)]GlcNAc6S
How it was run: as §1

[40] = biological target: Fuc(a1-3)[Gal3S(b1-4)]GlcNAc
How it was run: as §1

[41] = biological target: Fuc(a1-3)[Gal3S(b1-4)]GlcNAc6S
How it was run: as §1

[42] = biological target: Fuc(a1-3)[GalNAc(b1-4)]GlcNAc
How it was run: as §1

[43] = biological target: Fuc(a1-4)GlcNAc
How it was run: as §1

[44] = biological target: Fuc(b1-3)GlcNAc
How it was run: as §1

[45] = biological target: Gal(a1-2)Gal
How it was run: as §1

B1: RetS (Pseudomonas aeruginosa), Q9HUV7 (protein)
chain: MVRLRIAIGLLVSFLLLLLGPMSPAVADDAGVSSVPLQTTATTPSANQNWRLLRDESAQLRIADVLQRKEQFRPLAKRSFIFPASPQAVWLQVQLPAQKVPSWLWIFAPRVQYLDYYLVQDGQLVRDQHTGESRPFQERPLPSRSYLFSLPVDGKPMTLYVRMTSNHPLMAWFDQIDEAGLVGLEKPAYAFGMLLGGMLLLLMYNLIRFAYSRSASSLWLAAVHAALAVCAAANLGLVAFWLPGLKFNQSLTADLGALGAAVSLLWFACSFFRGTAESRLNRLLQGEALLILAVGAIIAFTQQLWFSWLIYLLVILSSLSVPLIAAWHWYRGYQPARLIVAGMIVFNAGFMVFLPVLFGTKQLDPGWLVLGVFSFATLAGLVLSVSLTERQRLIQQLNLQQRTSEAAHTAELQTKAEFLAKISHEIRTPMNGVLGMTELLLGTPLSAKQRDYVQTIHSAGNELLTLINEILDISKLESGQIELDEVQFDLNALIEDCLDIFRVKAEQQRIELISFTQPQVPRVIGGDPTRLRQVVLSLLDNAFKQTEEGEILLVVALDDQGETPRLRIAVQDSGHPFDAKEREALLTAELHSGDFLSASKLGSHLGLIIARQLVRLMGGEFGIQSGSSQGTTLSLTLPLDPQQLENPTADLDGPLQGARLLVVDDNETCRKVLVQQCSGWGLNVSAVSSGKEALAQLRTKAHLREYFDVVLLDQDMPGMTGMQLAAKIKEDPNLNHDILLIMLTGISNAPSKIIARNAGIKRILAKPVAGYTLKATLADELAQRGVSGVTNYLQPAKEAQAPSLPSDFRILVAEDNSISTKVIRGMLNKLNLQPDTASNGQEALSAMKATQYDLVLMDCEMPVLDGFSATEQLRAWEAHEQRPHTPVVALTAHILSEHKERARLVGMDGHMAKPVELSQLRELIAYWVGERDRRRQGDALPS
glycan array binding signal (z-score) [1]: 0.118
glycan array binding signal (z-score) [2]: -0.167
glycan array binding signal (z-score) [3]: -0.205
glycan array binding signal (z-score) [4]: 0.113
glycan array binding signal (z-score) [5]: -0.103
glycan array binding signal (z-score) [6]: -0.851
glycan array binding signal (z-score) [7]: -0.98
glycan array binding signal (z-score) [8]: -0.724
glycan array binding signal (z-score) [9]: -0.96
glycan array binding signal (z-score) [10]: 0.101
glycan array binding signal (z-score) [11]: 0.731
glycan array binding signal (z-score) [12]: 1.31
glycan array binding signal (z-score) [13]: 0.22
glycan array binding signal (z-score) [14]: 0.462
glycan array binding signal (z-score) [15]: -0.612
glycan array binding signal (z-score) [16]: 0.272
glycan array binding signal (z-score) [17]: -0.521
glycan array binding signal (z-score) [18]: -1.25
glycan array binding signal (z-score) [19]: 1.59
glycan array binding signal (z-score) [20]: 0.632
glycan array binding signal (z-score) [21]: 2.47
glycan array binding signal (z-score) [22]: -0.762
glycan array binding signal (z-score) [23]: -0.056
glycan array binding signal (z-score) [24]: 1.18
glycan array binding signal (z-score) [25]: 0.645
glycan array binding signal (z-score) [26]: 0.079
glycan array binding signal (z-score) [27]: -0.545
glycan array binding signal (z-score) [28]: -0.456
glycan array binding signal (z-score) [29]: -0.197
glycan array binding signal (z-score) [30]: -0.221
glycan array binding signal (z-score) [31]: -0.419
glycan array binding signal (z-score) [32]: -0.855
glycan array binding signal (z-score) [33]: -0.52
glycan array binding signal (z-score) [34]: -0.567
glycan array binding signal (z-score) [35]: -0.414
glycan array binding signal (z-score) [36]: 1.36
glycan array binding signal (z-score) [37]: -0.043
glycan array binding signal (z-score) [38]: -0.508
glycan array binding signal (z-score) [39]: -0.381
glycan array binding signal (z-score) [40]: 0.507
glycan array binding signal (z-score) [41]: 1.05
glycan array binding signal (z-score) [42]: -0.833
glycan array binding signal (z-score) [43]: -1.12
glycan array binding signal (z-score) [44]: 0.448
glycan array binding signal (z-score) [45]: -0.508

— the supplement of paper PMC8728848
